Results reported in publication PMC7171199.
These are yes or no findings as the source states them, for the method shown. In cells and extracts the contact can be indirect. Some binding calls cover weakened binding; strength is not graded here.

Chains of the proteins cited; added tags and fusions are not shown.
UniProt Q96D31: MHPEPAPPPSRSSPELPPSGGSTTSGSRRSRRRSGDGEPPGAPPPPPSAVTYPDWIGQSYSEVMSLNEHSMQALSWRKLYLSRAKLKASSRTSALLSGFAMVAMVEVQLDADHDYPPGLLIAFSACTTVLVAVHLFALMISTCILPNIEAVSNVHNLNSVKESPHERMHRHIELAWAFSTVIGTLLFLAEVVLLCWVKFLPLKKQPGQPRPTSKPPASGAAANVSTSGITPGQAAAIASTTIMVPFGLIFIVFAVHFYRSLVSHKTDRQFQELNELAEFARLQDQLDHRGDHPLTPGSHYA
UniProt Q14247: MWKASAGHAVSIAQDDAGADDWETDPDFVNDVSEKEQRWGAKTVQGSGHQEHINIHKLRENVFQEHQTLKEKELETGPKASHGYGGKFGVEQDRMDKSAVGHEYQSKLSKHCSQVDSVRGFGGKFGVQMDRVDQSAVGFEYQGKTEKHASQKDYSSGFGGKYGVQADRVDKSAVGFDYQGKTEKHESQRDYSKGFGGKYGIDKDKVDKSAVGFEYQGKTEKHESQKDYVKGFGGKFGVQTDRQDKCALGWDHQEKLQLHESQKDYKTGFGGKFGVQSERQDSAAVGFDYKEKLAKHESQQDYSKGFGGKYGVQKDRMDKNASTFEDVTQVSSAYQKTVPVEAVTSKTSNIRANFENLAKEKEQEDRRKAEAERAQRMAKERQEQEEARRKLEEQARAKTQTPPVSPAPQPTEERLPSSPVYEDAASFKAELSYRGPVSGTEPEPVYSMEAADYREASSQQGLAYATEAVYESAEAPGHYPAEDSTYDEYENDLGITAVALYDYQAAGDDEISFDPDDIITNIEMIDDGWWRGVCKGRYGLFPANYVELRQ
UniProt Q7L576: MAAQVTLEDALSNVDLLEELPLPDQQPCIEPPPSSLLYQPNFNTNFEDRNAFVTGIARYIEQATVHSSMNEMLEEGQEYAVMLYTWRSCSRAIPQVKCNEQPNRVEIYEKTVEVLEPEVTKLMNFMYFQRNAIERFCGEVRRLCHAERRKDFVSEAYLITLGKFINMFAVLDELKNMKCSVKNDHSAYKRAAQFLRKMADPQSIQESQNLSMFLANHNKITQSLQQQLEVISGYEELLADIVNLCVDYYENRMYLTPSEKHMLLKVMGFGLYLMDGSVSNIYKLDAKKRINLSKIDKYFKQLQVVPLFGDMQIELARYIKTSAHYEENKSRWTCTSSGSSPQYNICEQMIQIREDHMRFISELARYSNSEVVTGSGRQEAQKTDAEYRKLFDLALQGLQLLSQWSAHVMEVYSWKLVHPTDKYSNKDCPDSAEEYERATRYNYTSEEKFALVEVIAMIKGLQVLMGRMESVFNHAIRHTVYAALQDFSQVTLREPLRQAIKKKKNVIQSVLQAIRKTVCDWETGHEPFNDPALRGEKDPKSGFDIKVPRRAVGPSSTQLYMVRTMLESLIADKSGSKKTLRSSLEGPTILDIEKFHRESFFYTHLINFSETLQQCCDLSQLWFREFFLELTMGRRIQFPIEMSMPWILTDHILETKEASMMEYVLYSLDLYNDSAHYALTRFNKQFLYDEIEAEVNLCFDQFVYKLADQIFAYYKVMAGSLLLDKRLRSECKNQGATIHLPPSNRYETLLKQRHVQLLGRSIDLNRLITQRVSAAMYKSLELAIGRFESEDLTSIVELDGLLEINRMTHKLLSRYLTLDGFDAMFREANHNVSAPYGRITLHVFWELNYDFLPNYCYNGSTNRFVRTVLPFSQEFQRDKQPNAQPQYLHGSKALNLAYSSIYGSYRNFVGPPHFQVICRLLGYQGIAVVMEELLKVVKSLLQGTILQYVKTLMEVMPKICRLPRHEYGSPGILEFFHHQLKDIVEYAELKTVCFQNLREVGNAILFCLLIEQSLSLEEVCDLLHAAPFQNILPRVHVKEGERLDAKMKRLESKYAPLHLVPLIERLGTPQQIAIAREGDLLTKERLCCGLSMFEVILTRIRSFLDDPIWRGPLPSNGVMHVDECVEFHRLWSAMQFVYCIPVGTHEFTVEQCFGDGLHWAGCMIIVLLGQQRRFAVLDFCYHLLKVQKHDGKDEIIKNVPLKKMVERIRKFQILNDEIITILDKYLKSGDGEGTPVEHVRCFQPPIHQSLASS
UniProt Q60598: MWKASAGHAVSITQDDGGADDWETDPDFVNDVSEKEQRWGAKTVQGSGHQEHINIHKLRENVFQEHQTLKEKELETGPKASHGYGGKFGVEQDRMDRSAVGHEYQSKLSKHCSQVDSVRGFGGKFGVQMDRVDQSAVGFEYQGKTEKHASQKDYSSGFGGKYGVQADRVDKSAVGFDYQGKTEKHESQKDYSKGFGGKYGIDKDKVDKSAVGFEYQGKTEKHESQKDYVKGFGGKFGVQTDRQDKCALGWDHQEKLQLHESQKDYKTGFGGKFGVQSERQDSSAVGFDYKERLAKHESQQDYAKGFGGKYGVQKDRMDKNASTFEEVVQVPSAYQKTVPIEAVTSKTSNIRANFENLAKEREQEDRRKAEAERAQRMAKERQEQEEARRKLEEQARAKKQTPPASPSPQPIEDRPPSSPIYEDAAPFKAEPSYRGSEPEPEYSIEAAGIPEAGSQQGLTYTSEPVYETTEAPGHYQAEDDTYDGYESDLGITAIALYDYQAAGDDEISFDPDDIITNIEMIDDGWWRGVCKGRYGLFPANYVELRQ

Target: human ORAI1-GFP (human) (UniProt Q96D31)
Assay: co-IP; ORAI1-GFP captured with GFP-Trap agarose beads from clarified U2OS lysates (0.8-1 mg; 1% Nonidet P40 buffer), 1 h at 4 °C; washed once with lysis buffer with 0.15 M NaCl; co-precipitated proteins seen by immunoblot; cells starved, with or without 50 ng/ml EGF (up to 3 min), with or without 50 uM NSC 23766 for 8 h

Row | binding | Substance
1 | binds | endogenous cortactin (CTTN) (from UniProt Q14247 1-550)
2 | binds | endogenous CYFIP1 (cytosolic FMR-interacting protein 1) (from UniProt Q7L576 1-1253)
3 | binds | mCherry-cortactin (from UniProt Q60598 1-546)
